In publication PMC5645313:
Positions count from the first letter of the chain named. Numbers in names are those of the source. No constants are given. Whether binding was seen depends on the method and setting. For some assays here: In cells and extracts the contact can be indirect. Some binding calls cover weakened binding; strength is not graded here. Where a sequence is shown, tags or fusion partners need not be part of it. Each block holds one binder with its values, some of them ahead of it.

Chains of the proteins cited; added tags and fusions are not shown.
UniProt O49686: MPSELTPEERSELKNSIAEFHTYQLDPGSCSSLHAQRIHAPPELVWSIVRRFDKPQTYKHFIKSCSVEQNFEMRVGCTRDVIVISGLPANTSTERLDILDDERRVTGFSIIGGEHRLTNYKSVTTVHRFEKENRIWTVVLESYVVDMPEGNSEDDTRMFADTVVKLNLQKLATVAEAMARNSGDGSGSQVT

How the values were obtained:
[1] = target: T1, biotin-GID1A (biotinylated GA receptor GID1A) (Arabidopsis thaliana) (UniProt Q9MAA7); test: AlphaScreen or HTRF; 0.5 µl biotin-GID1A, 0.5 µl FLAG-GARU or FLAG-GAI, 0.5 µl V5-GARU or V5-GAI, with or without 1 µM GA3 (1% DMSO), AlphaScreen buffer, 15 µl, 25 °C, 1 h; wheat cell-free products
T1 sequence (chain, biotin (added by BirA during cell-free synthesis)): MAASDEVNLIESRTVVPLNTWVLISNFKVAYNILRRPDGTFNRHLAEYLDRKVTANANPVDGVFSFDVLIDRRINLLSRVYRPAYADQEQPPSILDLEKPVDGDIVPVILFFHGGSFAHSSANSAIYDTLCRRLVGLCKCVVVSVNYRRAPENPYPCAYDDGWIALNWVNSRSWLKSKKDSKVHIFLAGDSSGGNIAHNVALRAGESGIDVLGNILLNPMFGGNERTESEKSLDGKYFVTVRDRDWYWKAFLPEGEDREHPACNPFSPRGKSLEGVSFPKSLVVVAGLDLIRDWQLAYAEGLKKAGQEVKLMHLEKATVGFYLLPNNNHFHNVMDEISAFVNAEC

[2] = target: T2, GID1A–GA–DELLA complex (biotin-GID1A with V5-GAI and 1 µM GA3) (Arabidopsis thaliana) (UniProt Q9MAA7+Q9LQT8); test: as above
T2 sequence (chain, biotin (added by BirA during cell-free synthesis)) 1: T1 sequence (chain, biotin (added by BirA during cell-free synthesis))
T2 sequence (chain, biotin (added by BirA during cell-free synthesis)) 2: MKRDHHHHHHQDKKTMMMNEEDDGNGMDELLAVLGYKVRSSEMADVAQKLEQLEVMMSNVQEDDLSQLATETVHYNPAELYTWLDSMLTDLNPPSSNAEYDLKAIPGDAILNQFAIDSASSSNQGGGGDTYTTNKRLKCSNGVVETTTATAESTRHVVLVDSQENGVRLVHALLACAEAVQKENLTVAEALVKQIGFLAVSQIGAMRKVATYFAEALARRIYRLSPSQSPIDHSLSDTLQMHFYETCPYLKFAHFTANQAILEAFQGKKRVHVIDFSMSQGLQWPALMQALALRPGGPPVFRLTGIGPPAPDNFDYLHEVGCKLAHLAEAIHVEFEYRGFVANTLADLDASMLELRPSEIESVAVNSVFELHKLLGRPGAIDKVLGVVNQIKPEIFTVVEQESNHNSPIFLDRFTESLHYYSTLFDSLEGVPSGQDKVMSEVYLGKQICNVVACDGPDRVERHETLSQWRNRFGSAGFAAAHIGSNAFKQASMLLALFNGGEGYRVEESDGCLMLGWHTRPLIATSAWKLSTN

[3] = target: T1, biotin-GID1A (biotinylated GA receptor GID1A) (Arabidopsis thaliana); test: AlphaScreen or HTRF; FLAG-GARU or its mutants pre-incubated with TAGK2-His (wild type or kinase dead) in kinase buffer with 100 µM ATP at 26 °C for 90 min, then 1 µl of the mixture with biotin-GID1A in AlphaScreen buffer; signal relative to non-phosphorylated WT FLAG-GARU with biotin-GID1A
[4] = target: T1, biotin-GID1A (biotinylated GA receptor GID1A) (Arabidopsis thaliana); test: AlphaScreen or HTRF; screen of 204 FLAG-tagged Arabidopsis RING-type E3 ligases against biotinylated GID1A; 1 µl of each wheat cell-free product in 15 µl AlphaScreen buffer (100 mM Tris-HCl pH 8.0, 0.1% Tween20, 1 mg/ml BSA), 25 °C, 1 h; streptavidin donor beads, anti-FLAG M2 antibody with Protein A acceptor beads; background controlled with E. coli DHFR
[5] = target: T3, GID1A-V5 (Arabidopsis thaliana) (UniProt Q9MAA7); test: pull-down; in vitro pull-down (co-immunoprecipitation) of wheat cell-free recombinant proteins: HA-GARU pre-incubated with FLAG-TAGK2 or FLAG-TAGK3 (wild type or kinase dead) in kinase buffer at 26 °C for 60 min, then with GID1A-V5 or V5-PYR1 at 26 °C for 60 min; anti-V5 antibody and Protein G Sepharose; wash 50 mM Tris-HCl pH 8.0, 150 mM NaCl, 1% Triton X-100; blot with anti-HA
T3 sequence: T1 sequence (chain, biotin (added by BirA during cell-free synthesis))

[6] = target: V5-PYR1 (Arabidopsis thaliana) (UniProt O49686); test: as above
[7] = target: T4, GID1A-cYFP (C-terminal half of YFP fused GID1A) (Arabidopsis thaliana) (UniProt Q9MAA7); test: split reporter; BiFC in Arabidopsis mesophyll protoplasts, GID1A-cYFP and nYFP-GARU co-expressed, with or without 10 µM GA3 for 6 h; YFP fluorescence in the nucleus
T4 sequence: T1 sequence (chain, biotin (added by BirA during cell-free synthesis))

B1: FLAG-GARU (GA receptor RING E3 ubiquitin ligase, at2g40830), wild type (enzyme, UniProt O22197 1-328)
chain: MSSSRNTHWCHRCQRAVRLHGQEPVCFYCGGGFVEELDMAQASPFDMFRSHRGVVERDQTFDLMDAFSVFMRNRLAERSHDREIRGRTISSGPENFPGLAPLLIFGGQVPYRLTGDNAVEALFNGGSPGIGITRGNTGDYFFGPGLEELFEQLSAGTTRRGPPPAPRSAIDALPTIKIAQRHLRSSDSNCPVCKDEFELGSEAKQMPCNHIYHSDCIVPWLVQHNSCPVCRQELPSASGPSSSQNRTTPTRNYRSSSSSSSSNSRENGNERRNPFSSFWPFRSSGSSSSSTQNRGGTRNSDTSDENHNYHQQQHQQSYMGYSGWPFDY
binding [1]: binds
binding [2]: binds
binding [3]: binds
binding [4]: binds

B4: FLAG-GARU^Y321F (enzyme, UniProt O22197 1-328)
chain: B1 chain with Y321F
binding [3]: binds

Continued, values first:

binding [5]: binds
binding [6]: no binding
B2: HA-GARU (enzyme, UniProt O22197 1-328)
chain: B1 chain

binding [7]: binds
B3: nYFP-GARU (N-terminal half of YFP fused GARU) (enzyme, UniProt O22197 1-328)
chain: B1 chain
